Experimental data published in PubChem BioAssay AID588480 (Broad Institute, 2011).
This list was built around the results that the source calls inconclusive (neither active nor inactive); the mix of calls is not that of the screen. Calls of active or inactive are those of the source.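 The calls were made as follows: active = compounds whose fitted half-maximal concentration stays within ten times the top tested dose in every test run; inconclusive = runs disagree, or a flat partial drop or poor fit; inactive = every run inactive, including flat curves and signal rises.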

The chains behind the UniProt entries cited, without tags or fusion partners. Where a name states a change or a piece, a line headed by the entry shows the natural chain unless it says otherwise.
UniProt Q9BYT3: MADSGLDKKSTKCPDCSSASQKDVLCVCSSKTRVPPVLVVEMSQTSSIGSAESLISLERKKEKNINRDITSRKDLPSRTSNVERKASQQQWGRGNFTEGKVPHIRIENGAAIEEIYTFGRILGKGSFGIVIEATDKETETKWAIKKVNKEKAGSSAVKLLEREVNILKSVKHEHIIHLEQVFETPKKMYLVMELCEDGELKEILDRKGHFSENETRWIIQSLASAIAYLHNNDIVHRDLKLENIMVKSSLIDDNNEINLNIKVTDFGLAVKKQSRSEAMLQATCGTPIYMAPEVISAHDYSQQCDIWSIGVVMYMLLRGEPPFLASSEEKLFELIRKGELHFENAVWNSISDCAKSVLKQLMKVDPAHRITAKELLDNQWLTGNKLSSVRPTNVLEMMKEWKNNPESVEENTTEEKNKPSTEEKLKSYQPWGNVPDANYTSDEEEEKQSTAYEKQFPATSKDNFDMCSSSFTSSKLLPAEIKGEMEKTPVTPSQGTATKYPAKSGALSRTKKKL

What follows are compounds tested against Serine/threonine-protein kinase 33 (Homo sapiens) (UniProt Q9BYT3) (assay: STK33 kinase inhibitors, potency, dose response, biochemical, ADP-Glo luminescence, dry powder, set 2 (AID 588480)). Conditions: purified STK33, MBP phosphorylation; at 10 µM (top of the series).

**Q.** With `COc1ccccc1N=C1NC(=O)/C(=C/c2cccc(Cl)c2)S1` as the compound, how does the activity change, negative = inhibition read?
**A.** inactive: -2.26%

**Q.** `COc1ccccc1N=C1NC(=O)/C(=C/c2ccc(F)c(F)c2)S1` was tested. Which activity change, negative = inhibition did it give?
**A.** inconclusive: -12.3%

**Q.** `COc1ccccc1N=C1NC(=O)/C(=C/c2ccc(C(C)C)cc2)S1` was tested. Which activity change, negative = inhibition did it give?
**A.** inconclusive: -79.1%

**Q.** For `COc1ccccc1N=C1NC(=O)/C(=C/c2ccccc2Cl)S1`, which activity change, negative = inhibition is on record?
**A.** inconclusive: -5.35%

**Q.** `COc1ccccc1N=C1NC(=O)/C(=C/c2ccccc2)S1` was tested. Which activity change, negative = inhibition did it give?
**A.** inconclusive: -47.5%

**Q.** For `COc1ccccc1N=C1NC(=O)/C(=C/c2ccc(C)cc2)S1`, which activity change, negative = inhibition is on record?
**A.** inconclusive: -4.7%

**Q.** `COc1ccccc1N=C1NC(=O)/C(=C/c2ccc(F)cc2)S1` was tested. Which activity change, negative = inhibition did it give?
**A.** inconclusive: -17.2%

**Q.** How did the activity change, negative = inhibition turn out when `COc1ccccc1N=C1NC(=O)/C(=C/c2ccc(OC)c(OC)c2)S1` was run?
**A.** inconclusive: -11.3%

**Q.** How did the activity change, negative = inhibition turn out when `COc1ccccc1N=C1NC(=O)/C(=C/c2ccccc2F)S1` was run?
**A.** inconclusive: 6.57%

**Q.** For `COc1ccccc1N=C1NC(=O)/C(=C/c2ccc(-c3cccnc3)cc2)S1`, which activity change, negative = inhibition is on record?
**A.** inconclusive: 0.608%

**Q.** For `COc1ccccc1Nc1nc(O)c(/C=c2/ccc3c(c2)C=CN=3)s1`, which activity change, negative = inhibition is on record?
**A.** inconclusive: -27.1%

**Q.** `O=c1[nH]c2ccccc2nc1-c1ccccc1NCc1cccs1` was tested. Which activity change, negative = inhibition did it give?
**A.** inactive: -4.4%

**Q.** For `COc1ccccc1N=C1NC(=O)/C(=C/c2ccc(Cl)cc2)S1`, which activity change, negative = inhibition is on record?
**A.** inconclusive: -10%

**Q.** With `COc1ccccc1N=C1NC(=O)/C(=C/C(C)C)S1` as the compound, how does the activity change, negative = inhibition read?
**A.** inactive: -10.6%

**Q.** Which activity change, negative = inhibition does the source give for `COc1ccccc1N=C1NC(=O)/C(=C/c2ccncc2)S1` here?
**A.** inconclusive: -21.6%

**Q.** `COc1ccccc1N=C1NC(=O)/C(=C/c2cccnc2)S1` was tested. Which activity change, negative = inhibition did it give?
**A.** inconclusive: -27.5%

**Q.** For `COc1ccccc1/C=C1\SC(=Nc2ccccc2OC)NC1=O`, which activity change, negative = inhibition is on record?
**A.** inactive: 5.35%

**Q.** How did the activity change, negative = inhibition turn out when `COc1ccccc1N=C1NC(=O)/C(=C/c2nc(C)cs2)S1` was run?
**A.** inconclusive: -12.1%

**Q.** With `O=C(Nc1ccccc1-c1nc2ccccc2[nH]c1=O)C1CCCCC1` as the compound, how does the activity change, negative = inhibition read?
**A.** inactive: -15.1%

**Q.** For `COc1ccccc1N=C1NC(=O)/C(=C/C2CCCCC2)S1`, which activity change, negative = inhibition is on record?
**A.** inactive: -13.8%

**Q.** With `Nc1ccccc1-c1nc2ccccc2[nH]c1=O` as the compound, how does the activity change, negative = inhibition read?
**A.** inactive: -3.55%

**Q.** Which activity change, negative = inhibition does the source give for `COc1ccccc1N=C1NC(=O)/C(=C/c2ccc(Cl)c(Cl)c2)S1` here?
**A.** inconclusive: -21.6%

**Q.** With `COc1ccccc1N=C1NC(=O)/C(=C/c2cccc(F)c2)S1` as the compound, how does the activity change, negative = inhibition read?
**A.** inactive: 3.87%

**Q.** With `COc1ccccc1N=C1NC(=O)/C(=C/c2ccccn2)S1` as the compound, how does the activity change, negative = inhibition read?
**A.** inactive: 2.2%

**Q.** `COc1ccccc1N=C1NC(=O)CS1` was tested. Which activity change, negative = inhibition did it give?
**A.** inactive: -10.1%

**Q.** For `COc1ccccc1N=C1NC(=O)/C(=C/c2ccc3c(c2)OC(F)(F)O3)S1`, which activity change, negative = inhibition is on record?
**A.** inconclusive: 6.13%

**Q.** With `COc1ccccc1N=C1NC(=O)/C(=C/c2cc(Cl)cc(Cl)c2O)S1` as the compound, how does the activity change, negative = inhibition read?
**A.** inconclusive: -48.6%
